In patent publication US20120251492A1, “TRITERPENE DERIVATIVE AND AGENT FOR PREVENTING OR TREATING CHRONIC HEPATITIS C” (MEIJI SEIKA PHARMA CO., LTD., priority 2009, published 2012):
Some of these results come from one statement about several compounds together.

experiment: Pharmacokinetics study in mice; type: in vivo, Balb/c mice; settings: favorable = AUC of 50 μg·hr/ml or more, or AUC of 30 to 50 μg·hr/ml with t1/2 of 10 hours or longer
Method: Balb/c mice (male, 7 to 8-week old) were used (3 or more mice per group). Each test compound suspended in olive oil was orally administered at 20 mg/kg, and blood was collected from the jugular vein after 2, 6, and 24 hours, or after 2, 4, 6, 8, 24, and 48 hours. The plasma drug concentration was measured by using a liquid chromatograph/mass spectrometry/mass spectrometry (LC-MS/MS). In addition, pharmacokinetics parameters were obtained from change in the obtained plasma concentration.

Row | Compound | biokinetics (overall judgement)
1 | CO[C@@H]1CC(C)(C)CC2C3=CCC4[C@@]5(C)CC[C@H](O)[C@](C)(C(=O)O)C5CC[C@@]4(C)[C@]3(C)CC[C@]21C (stereo partly drawn) [Compound 14, 3β-hydroxy-22β-methoxyolean-12-en-24-oic acid] | favorable biokinetics
2 | CC1(C)C[C@@H](OCc2ccccc2)[C@]2(C)CC[C@]3(C)C(=CCC4[C@@]5(C)CC[C@H](O)[C@](C)(C(=O)O)C5CC[C@]43C)[C@@H]2C1 (stereo partly drawn) [Compound 12, 22β-benzyloxyolean-12-ene-3β-hydroxy-24-oic acid] | favorable biokinetics
3 | C=CCO[C@@H]1CC(C)(C)C[C@H]2C3=CCC4[C@@]5(C)CC[C@H](O)[C@](C)(C(=O)O)C5CC[C@@]4(C)[C@]3(C)CC[C@@]12C (stereo partly drawn) [Compound 13, 22β-allyloxyolean-12-ene-3β-hydroxy-24-oic acid] | favorable biokinetics
4 | C#CCO[C@@H]1CC(C)(C)C[C@H]2C3=CCC4[C@@]5(C)CC[C@H](O)[C@](C)(CO)C5CC[C@@]4(C)[C@]3(C)CC[C@@]12C (stereo partly drawn) [Compound 2, 22β-(2-propynyloxy)olean-12-ene-3β,24-diol] | favorable biokinetics
